Laboratory results reported in article PMC2994903.

Amino acid sequences for entries named in this document (tags omitted). A change or cut given only in a name is not applied to a line headed by its entry.
UniProt P09496: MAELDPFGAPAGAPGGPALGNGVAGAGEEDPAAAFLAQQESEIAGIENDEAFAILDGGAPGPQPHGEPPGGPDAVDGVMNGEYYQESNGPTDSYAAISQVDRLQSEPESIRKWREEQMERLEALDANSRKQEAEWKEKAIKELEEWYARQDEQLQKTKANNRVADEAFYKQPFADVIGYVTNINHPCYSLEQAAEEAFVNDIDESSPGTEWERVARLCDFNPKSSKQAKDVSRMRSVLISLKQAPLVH
UniProt Q9UI95: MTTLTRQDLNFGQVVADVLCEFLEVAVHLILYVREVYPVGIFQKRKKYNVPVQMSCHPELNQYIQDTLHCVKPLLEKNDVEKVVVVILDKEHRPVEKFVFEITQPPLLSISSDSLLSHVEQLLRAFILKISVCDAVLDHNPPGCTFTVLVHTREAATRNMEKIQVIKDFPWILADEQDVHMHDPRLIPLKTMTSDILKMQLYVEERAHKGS

Experiments:
[1] = target: endogenous clathrin light chain A (CLTA) (human (endogenous in U2OS)) (UniProt P09496); experiment: co-IP; endogenous proteins, unsynchronized U2OS cells (majority in G0 and/or G1); IP with anti-CLTA, blot with anti-MAD2B
[2] = target: endogenous clathrin light chain A (CLTA) (human (endogenous in U2OS)) (UniProt P09496); experiment: condition: only cells at t = 0 of the double thymidine block (S phase); co-IP; endogenous proteins, U2OS cells at t = 0 of the double thymidine block (majority in S phase); IP with anti-CLTA, blot with anti-MAD2B
[3] = target: endogenous clathrin light chain A (CLTA) (human (endogenous in U2OS)) (UniProt P09496); experiment: co-IP; endogenous proteins, U2OS cells 12 h after release from a double thymidine block (majority in G2 and/or M); IP with anti-CLTA or control mouse IgG, blot with anti-MAD2B

Substance: endogenous MAD2B (from UniProt Q9UI95 1-211)
- binding [1]: no binding (only unsynchronized cells)
- binding [2]: no binding
- binding [3]: binds

No constants are given. Whether binding was seen depends on the method and setting. In cells and extracts the contact can be indirect. For part of these data: A result given as binding can be weak or reduced; the word gives no strength.
